Measurements published in publication PMC13246001, “Membrane binding controls the ATPase cycle and localization of MinD in Bacillus subtilis” (eLife, 2026).
These are yes or no findings as the source states them, for the method shown. Tags and fused reporters may be left off the sequences shown.

Sequences of proteins named here, by UniProt entry; tags and fusion partners are left off. Residues count along the entry.
UniProt P02769, residues 25-607: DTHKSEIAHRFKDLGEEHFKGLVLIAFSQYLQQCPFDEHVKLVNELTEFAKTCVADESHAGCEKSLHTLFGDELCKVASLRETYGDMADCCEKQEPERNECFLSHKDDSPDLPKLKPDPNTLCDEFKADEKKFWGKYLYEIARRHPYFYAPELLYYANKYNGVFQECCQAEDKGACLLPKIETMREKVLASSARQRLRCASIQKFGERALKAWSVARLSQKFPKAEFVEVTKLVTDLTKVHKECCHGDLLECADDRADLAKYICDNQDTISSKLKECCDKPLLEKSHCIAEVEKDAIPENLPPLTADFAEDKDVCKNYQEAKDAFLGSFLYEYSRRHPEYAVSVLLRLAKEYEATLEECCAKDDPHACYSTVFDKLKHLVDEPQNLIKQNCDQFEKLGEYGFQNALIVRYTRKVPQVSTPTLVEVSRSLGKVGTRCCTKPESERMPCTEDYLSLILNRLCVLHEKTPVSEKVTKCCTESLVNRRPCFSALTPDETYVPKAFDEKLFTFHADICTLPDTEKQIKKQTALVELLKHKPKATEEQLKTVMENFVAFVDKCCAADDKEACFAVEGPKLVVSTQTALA

T1: His-MinD (B. subtilis MinD, N-terminally His-tagged) (B. subtilis) (UniProt Q01464)
T1 sequence: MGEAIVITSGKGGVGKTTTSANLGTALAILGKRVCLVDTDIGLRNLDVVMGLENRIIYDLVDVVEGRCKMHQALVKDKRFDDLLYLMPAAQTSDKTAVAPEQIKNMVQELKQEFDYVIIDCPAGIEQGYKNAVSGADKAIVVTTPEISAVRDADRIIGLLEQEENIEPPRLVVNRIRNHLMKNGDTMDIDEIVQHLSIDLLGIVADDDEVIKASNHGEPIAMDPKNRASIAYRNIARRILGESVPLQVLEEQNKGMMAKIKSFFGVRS


Assays:
[1] = molecular target: T1, His-MinD (B. subtilis MinD, N-terminally His-tagged) (B. subtilis); test: BLI; BLItz, streptavidin sensor coated with biotinylated liposomes, first dipped into 8 uM His-MinD, then into 8 uM His-MinD together with 8 uM of the partner (His-MinC, His-PDZ or BSA); gel filtration buffer C; both purified
[2] = molecular target: His-MinD-G12V (B. subtilis) (UniProt Q01464); test: SEC; Superdex200 Increase 10/300 GL, 0.75 ml/min, buffer C (50 mM HEPES-KOH, 150 mM KCl, 10% glycerol, 0.1 mM EDTA, pH 7.2) with 0.4 mM TCEP and 0.2 mM Mg2+-ADP; column calibrated with a gel filtration standard; both purified

Row | binding [1] | binding [2] | Molecule
1 | no binding (tested: 8 µM) | – | bovine serum albumin (from UniProt P02769 25-607)
2 | – | no binding | His-MinD-G12V (enzyme, UniProt Q01464 1-268) MGEAIVITSGKVGVGKTTTSANLGTALAILGKRVCLVDTDIGLRNLDVVMGLENRIIYDLVDVVEGRCKMHQALVKDKRFDDLLYLMPAAQTSDKTAVAPEQIKNMVQELKQEFDYVIIDCPAGIEQGYKNAVSGADKAIVVTTPEISAVRDADRIIGLLEQEENIEPPRLVVNRIRNHLMKNGDTMDIDEIVQHLSIDLLGIVADDDEVIKASNHGEPIAMDPKNRASIAYRNIARRILGESVPLQVLEEQNKGMMAKIKSFFGVRS
